Primary screen of a compound library

Chains of the proteins cited; added tags and fusions are not shown.
UniProt P9WFT3, whole entry: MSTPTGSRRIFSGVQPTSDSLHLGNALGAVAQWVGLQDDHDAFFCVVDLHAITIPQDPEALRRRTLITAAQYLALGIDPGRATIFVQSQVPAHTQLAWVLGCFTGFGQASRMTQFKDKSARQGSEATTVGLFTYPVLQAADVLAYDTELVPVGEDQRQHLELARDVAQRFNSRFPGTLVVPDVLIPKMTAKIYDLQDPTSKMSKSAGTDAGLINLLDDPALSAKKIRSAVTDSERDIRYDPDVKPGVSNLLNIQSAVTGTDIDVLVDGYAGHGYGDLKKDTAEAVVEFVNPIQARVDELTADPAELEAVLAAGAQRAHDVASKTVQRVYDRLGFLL
UniProt P9WPC5, whole entry: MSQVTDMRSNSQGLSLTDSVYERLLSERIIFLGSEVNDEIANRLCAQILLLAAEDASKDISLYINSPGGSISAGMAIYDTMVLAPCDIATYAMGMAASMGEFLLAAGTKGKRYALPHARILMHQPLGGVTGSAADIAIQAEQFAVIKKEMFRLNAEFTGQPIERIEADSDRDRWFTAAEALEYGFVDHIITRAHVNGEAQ
UniProt P9WPC3, whole entry partner: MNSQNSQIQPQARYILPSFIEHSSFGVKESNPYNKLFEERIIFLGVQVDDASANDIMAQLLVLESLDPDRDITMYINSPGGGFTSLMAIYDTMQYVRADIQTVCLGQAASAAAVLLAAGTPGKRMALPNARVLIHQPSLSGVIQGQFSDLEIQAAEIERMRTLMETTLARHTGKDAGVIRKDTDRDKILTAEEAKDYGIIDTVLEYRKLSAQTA
UniProt P9WNZ1, whole entry: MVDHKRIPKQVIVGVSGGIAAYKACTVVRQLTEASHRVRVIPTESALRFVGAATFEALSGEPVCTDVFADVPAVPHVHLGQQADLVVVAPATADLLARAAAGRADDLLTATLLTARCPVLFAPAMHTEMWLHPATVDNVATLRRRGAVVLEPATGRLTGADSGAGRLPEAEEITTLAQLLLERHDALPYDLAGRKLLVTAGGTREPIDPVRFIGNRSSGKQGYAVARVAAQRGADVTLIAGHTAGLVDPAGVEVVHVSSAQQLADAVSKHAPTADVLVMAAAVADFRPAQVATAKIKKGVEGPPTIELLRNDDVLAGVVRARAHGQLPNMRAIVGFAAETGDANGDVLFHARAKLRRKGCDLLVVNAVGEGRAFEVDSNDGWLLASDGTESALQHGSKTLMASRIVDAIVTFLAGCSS
UniProt I6X8D2, whole entry: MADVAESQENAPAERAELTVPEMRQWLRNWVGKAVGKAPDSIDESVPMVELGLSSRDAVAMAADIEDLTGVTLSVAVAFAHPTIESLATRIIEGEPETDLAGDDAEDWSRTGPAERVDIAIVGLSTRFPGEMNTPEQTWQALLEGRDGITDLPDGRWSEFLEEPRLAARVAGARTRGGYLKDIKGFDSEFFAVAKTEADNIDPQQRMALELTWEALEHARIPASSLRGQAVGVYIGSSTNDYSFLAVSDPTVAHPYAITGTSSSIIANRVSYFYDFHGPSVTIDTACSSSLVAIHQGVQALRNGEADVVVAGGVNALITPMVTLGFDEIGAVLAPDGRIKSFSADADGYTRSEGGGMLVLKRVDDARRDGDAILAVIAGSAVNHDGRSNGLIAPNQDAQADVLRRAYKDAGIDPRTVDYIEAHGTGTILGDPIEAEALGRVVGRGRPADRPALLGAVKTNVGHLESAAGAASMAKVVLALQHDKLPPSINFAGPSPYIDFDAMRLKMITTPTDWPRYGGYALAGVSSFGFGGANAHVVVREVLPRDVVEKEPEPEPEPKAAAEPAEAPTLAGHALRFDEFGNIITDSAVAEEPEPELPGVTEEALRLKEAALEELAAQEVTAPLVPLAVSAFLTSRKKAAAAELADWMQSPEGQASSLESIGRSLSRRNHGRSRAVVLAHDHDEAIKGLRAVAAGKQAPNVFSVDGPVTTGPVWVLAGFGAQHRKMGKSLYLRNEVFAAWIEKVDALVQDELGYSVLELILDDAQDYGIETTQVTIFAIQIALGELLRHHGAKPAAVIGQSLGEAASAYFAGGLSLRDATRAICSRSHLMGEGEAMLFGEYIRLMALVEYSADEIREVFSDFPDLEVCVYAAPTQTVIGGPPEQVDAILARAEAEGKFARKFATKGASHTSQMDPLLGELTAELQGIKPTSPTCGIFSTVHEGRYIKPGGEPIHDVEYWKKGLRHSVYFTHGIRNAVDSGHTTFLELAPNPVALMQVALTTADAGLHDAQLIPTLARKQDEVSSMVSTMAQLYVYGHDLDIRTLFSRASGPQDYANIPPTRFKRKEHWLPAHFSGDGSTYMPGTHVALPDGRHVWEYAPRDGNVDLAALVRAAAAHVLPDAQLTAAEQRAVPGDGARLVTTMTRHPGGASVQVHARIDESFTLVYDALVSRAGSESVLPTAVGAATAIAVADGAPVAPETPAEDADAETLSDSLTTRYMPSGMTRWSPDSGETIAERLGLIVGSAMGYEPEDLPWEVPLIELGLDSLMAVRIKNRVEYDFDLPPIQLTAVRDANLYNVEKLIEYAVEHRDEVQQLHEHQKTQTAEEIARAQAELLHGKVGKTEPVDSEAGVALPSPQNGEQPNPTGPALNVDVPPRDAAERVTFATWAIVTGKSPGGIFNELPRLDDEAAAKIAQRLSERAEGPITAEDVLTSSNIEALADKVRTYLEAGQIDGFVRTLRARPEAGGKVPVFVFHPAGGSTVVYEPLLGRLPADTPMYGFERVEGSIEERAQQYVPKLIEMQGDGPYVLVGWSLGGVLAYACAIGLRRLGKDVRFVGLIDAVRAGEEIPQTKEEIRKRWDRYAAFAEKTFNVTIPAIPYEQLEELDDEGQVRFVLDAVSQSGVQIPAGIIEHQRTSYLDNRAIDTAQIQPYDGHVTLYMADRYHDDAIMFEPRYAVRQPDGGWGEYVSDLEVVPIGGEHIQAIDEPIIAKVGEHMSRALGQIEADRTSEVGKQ

From ChEMBL document CHEMBL3988442, “University of Dundee, Small-Polar-MMV Screening Library” (2021).

MtTrpRS: 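Tryptophan-tRNA ligase, Mycobacterium tuberculosis (UniProt P9WFT3). Enzyme assay of tryptophanyl-tRNA synthetase; the read-out is not stated. Compounds at 10 µM. Higher most likely means stronger inhibition; the record gives no direction and few retests gave an IC50. Size under these conditions: about 65,000 compounds, about 64 of them at 50% or above in at least one test.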
Toxoplasma: 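Assay of Toxoplasma gondii numbers, read through their beta-galactosidase reporter with a colour substrate. Compounds at 10 µM. Higher reads as fewer parasites (inferred from which compounds were picked for retests). Of about 67,000 compounds tested this way, about 260 (0.38%) reached 50% or more in at least one test.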
ClpP1P2: 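Protease assay of ClpP1P2, read by the AMC dye that it sets free. Target: ClpP1P2, Mycobacterium tuberculosis (UniProt P9WPC5 and UniProt P9WPC3). Compounds at 50 µM. Direction is inferred from only a few compounds that gave an IC50; most scored high, so higher reads as stronger inhibition. Most other retested compounds had strongly negative values. About 69,000 compounds were tested under these conditions; 0.015% (about 10) showed 50% or more at least once.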
CoaBC: 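Coenzyme A biosynthesis protein CoaBC, Mycobacterium tuberculosis (UniProt P9WNZ1). Enzyme assay of CoaBC with a phosphate dye (Biomol Green) read at 650 nm. Tested at 30 µM. Higher reads as stronger inhibition, judged from the few compounds that gave an IC50. Most strong results did not repeat in a second test. About 67,000 compounds were tested under these conditions; 0.06% (about 40) showed 50% or more at least once.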
Pks13 thioesterase: 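Polyketide synthase Pks13, Mycobacterium tuberculosis (UniProt I6X8D2). Enzyme assay of the thioesterase domain of polyketide synthase 13; the read-out is not stated. Tested at 30 µM. Higher reads as stronger inhibition (inferred from which compounds were picked for retests). Of about 67,000 compounds tested this way, about 300 (0.46%) reached 50% or more in at least one test.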

Each number is a percent effect as filed.
The controls that fix the scale are not given in the record; negative values are as filed.
The compounds are a random part of those screened.
A dash means the value is not listed here; it may have been measured.

| # | SMILES | MtTrpRS | Toxoplasma | ClpP1P2 | CoaBC | Pks13 thioesterase |
|---|---|---|---|---|---|---|
| 1 | `Cc1ccc(CN(C)C(=O)CN2CCCC2Cn2cncn2)cc1` (stereo not shown) | -1.002 | -2.731 | 11.39 | -2.314 | -9.037 |
| 2 | `COCCCC1CCCCN1Cc1cn2cc(C)ccc2n1` (stereo not shown) | 3.366 | 5.821 | 4.138 | 5.646 | -5.006 |
| 3 | `O=C(O)C(F)(F)F.[H][C@@]12CCN(CCc3ccccc3)C[C@]1([H])[C@@H](CNS(C)(=O)=O)OC2` | - | 26.74 | - | - | - |
| 4 | `CN(C)CCN1CCCC12CCN(C(=O)c1cccn1C)CC2` | -1.438 | - | -3.365 | 0.6435 | 0.8705 |
| 5 | `Cc1noc([C@@H]2C[C@H]3CN(Cc4ccc5c(c4)OCO5)C[C@H]3O2)n1` | -1.717 | - | 2.95 | 2.217 | -2.921 |
| 6 | `Cc1ccc2c(n1)N(C)CCN(C(=O)C1CC1)C2.O=C(O)C(F)(F)F` | - | 1.496 | - | - | - |
| 7 | `O=C(O)C(F)(F)F.O=C(O)C(F)(F)F.c1ccc(NCc2cnc3n2CCN(CC2CCOC2)CC3)nc1` (stereo not shown) | - | -4.882 | - | - | - |
| 8 | `O=C(c1ccc2c(c1)CCC2)N1CCCCC1C1OCCO1` (stereo not shown) | 2.801 | -0.6952 | 5.967 | 4.126 | -13.03 |
| 9 | `N#CCCCn1nnc(C2(NC(=O)c3ccccc3)CCCC2)n1` | -3.62 | - | -2.844 | -0.369 | -0.5322 |
| 10 | `CN1CCN(Cc2ccccc2CNC(=O)c2ccc(Br)cc2F)CC1` | -2.682 | 3.349 | -6.106 | -37.44 | -16.4 |
| 11 | `Cc1nc(C)c(C(=O)N2CCC(Nc3cccnc3)CC2)s1` | 5.674 | 15.5 | -11.22 | -4.946 | 9.627 |
| 12 | `CCN1CC2(CC1=O)CN(C(=O)c1ccsc1)CCN(C(=O)N(C)C)C2` (stereo not shown) | 0.3003 | -6.583 | -18.68 | 1.85 | -18.22 |
| 13 | `NC(=O)c1ccc(OCC(=O)NC2CCc3c(F)cccc32)cc1` (stereo not shown) | 3.922 | -15.18 | -5.328 | - | 3.936 |
| 14 | `CN(C)CC1CN(C(=O)NCc2ccccc2)Cc2nccn2C1.O=C(O)C(F)(F)F` (stereo not shown) | - | 26.04 | - | - | - |
| 15 | `CCc1nccn1CC(=O)Nc1cccc(N2CCCC2)c1` | -0.5529 | -20.05 | 15.28 | 1.577 | -7.719 |
| 16 | `CC(O)CN1CCC(CNCc2cccc(Cl)c2)CC1` (stereo not shown) | 4.661 | 16.11 | -24.31 | 7.101 | -17.09 |
| 17 | `Cc1n[nH]c(C)c1Sc1ccccc1NC(=O)N1CCOCC(O)C1` (stereo not shown) | -0.5128 | -9.993 | -11.97 | -0.4914 | -6.052 |
| 18 | `CCc1ncc2c(n1)CN(c1nnc(C)c(C)c1C#N)CC2` | 1.877 | -11.78 | 4.032 | 5.765 | -6.277 |
| 19 | `[H][C@]12CC[C@]([H])(CN(C(=O)CCn3cccn3)C1)N(Cc1ccccn1)C2=O` | - | 16.62 | - | - | - |
| 20 | `Cc1cnc(CCN(C)C(=O)c2cccc(C)c2O)s1` | 0.5376 | -6.809 | -7.135 | 3.422 | -30.46 |
| 21 | `CNS(=O)(=O)c1ccc(CNC(=O)NCC2CCOC2)cc1` (stereo not shown) | -1.486 | 0.4135 | 14.3 | 6.667 | -20.25 |
| 22 | `CCOC(=O)c1cnn(C2CCN(C(=O)CC(C)(C)C)CC2)c1N` | 0.4599 | 1.949 | -2.469 | 1.402 | -9.782 |
| 23 | `Cc1csc(CCNC(=O)c2ccc(N(C)C)c(F)c2)n1` | -4.033 | -3.346 | 3.881 | 0.4878 | -31.89 |
| 24 | `CC1CCN(S(=O)(=O)NCc2ccccc2Cn2cccn2)CC1` | 20.49 | -24.53 | 18.41 | -6.832 | -11.48 |
| 25 | `Cc1ccc(C(=O)NC2CCCN(c3ncccn3)C2)cn1` (stereo not shown) | -0.3127 | 5.747 | 4.226 | 8.614 | -11.34 |
| 26 | `C[C@@H]1CN(CCOCc2ccccc2)CC[C@@]1(O)C1CCC1` | -5.644 | -20.85 | -18.2 | -0.8696 | -9.229 |
| 27 | `O=C1CCOCCN1Cc1ccc(C(F)(F)F)c(F)c1` | -5.644 | -17.72 | -12.95 | 0.6211 | 2.289 |
| 28 | `CCc1ccc(CN(C)Cc2cnc(S(=O)(=O)CC)n2CCOC)cc1` | -1.522 | -1.298 | -17.77 | 2.292 | 18.47 |
| 29 | `CCOCCC1(CNC(=O)c2ccncc2)CCC1` | 2.3 | 4.368 | -7.733 | 5.841 | -11.44 |
| 30 | `OC(COCc1ccccc1)CN1CC(n2cccn2)C1` (stereo not shown) | 0.4394 | -35.01 | -0.02534 | 5.196 | - |
| 31 | `CCN1CCC(c2nnc(CN3CCCC3)n2C2CC2)CC1` | -4.642 | -3.406 | 9.094 | 4.234 | -15.5 |
| 32 | `Cc1noc(C)c1-c1cccc(C2CCN(S(=O)(=O)N(C)C)CC2)n1` | 3.329 | 3.884 | 3.39 | -23.49 | -9.043 |
| 33 | `COc1ccccc1CN1C[C@@H]2CN(C(C)=O)CCO[C@@H]2C1` | - | - | -6.523 | 2.475 | -9.614 |
| 34 | `O=C1COc2ccc(S(=O)(=O)NCc3ccccc3)c3c2N1CCC3` | 1.498 | -9.936 | -9.837 | -1.38 | -14.99 |
| 35 | `COCCCN(Cc1cnc(C2CCCCC2)nc1)C1CCN(C)CC1` | 1.253 | -19.41 | 13.81 | 11.36 | -10.58 |
| 36 | `Cc1nc(CN2CCO[C@H]3[C@@H](OCc4ccccn4)CC[C@@H]32)cs1` | -0.8629 | - | 4.68 | 2.188 | -3.655 |
| 37 | `Cl.O=C(C1CCCCC1)N1CCC2(CC1)CNCc1ccccc12` | - | -2.751 | - | - | - |
| 38 | `COc1ccc(CN2CCc3ncnc(C4CCOC4)c3CC2)cc1.O=C(O)C(F)(F)F` (stereo not shown) | - | 1.175 | - | - | - |
| 39 | `CC(C)(O)CN1CCN(C(=O)c2cccn2Cc2cccnc2)CC1` | -0.7597 | -2.955 | 10.74 | -9.339 | -3.332 |
| 40 | `CCCOC1CCCN(C(=O)c2ccc(S(N)(=O)=O)cc2)C1` (stereo not shown) | 1.288 | -1.966 | -12.25 | 1.583 | 2.746 |
| 41 | `COc1cc(C(=O)N2C[C@H]3CC[C@@H]2CN(Cc2cscn2)C3)ccn1` | -1.112 | - | -10.2 | 2.554 | -27.25 |
| 42 | `CC(NCCn1c(=O)oc2ccccc21)c1ccccn1` (stereo not shown) | -4.974 | -7.606 | 3.593 | 2.941 | -1.05 |
| 43 | `Cn1ccnc1CN(CCO)C(=O)c1cc2ccccc2o1` | 9.356 | 1.556 | -11.28 | 0.2058 | 3.803 |
| 44 | `CC(=O)NCCNC(=O)CNC1CCCN(c2ccc(C)nn2)C1` (stereo not shown) | 7.241 | -2.215 | -5.352 | 7.329 | 7.014 |
| 45 | `CN1CSC[C@H]1C(=O)N1CCC(Cc2ccccc2F)CC1` | -3.207 | 1.699 | 3.738 | 3.067 | 3.779 |
| 46 | `CC(C)Cc1noc(C2CCN(C(=O)c3cccs3)CC2)n1` | -2.151 | -3.453 | -8.581 | 4.478 | -5.469 |
| 47 | `COc1c(C2CCCN2C(=O)c2cccc(C(N)=O)c2)c(C)nn1C` (stereo not shown) | -0.5473 | 0.7679 | 7.067 | 4.359 | -25.09 |
| 48 | `CCN(C)c1nccc(N2CCN[C@H]3CS(=O)(=O)C[C@H]32)n1` | -4.775 | - | -4.282 | -1.572 | -11.51 |
| 49 | `Cc1nc2ccccc2nc1CN1CCCCC1Cn1cncn1` (stereo not shown) | -3.011 | -0.1158 | -10.68 | 0.216 | -19.48 |
| 50 | `COc1cccc(CCC2CCCN(C(C)=O)C2)c1` (stereo not shown) | -2.408 | -0.7379 | -19.59 | 0 | -8.438 |
| 51 | `CC(C)Nc1ncnc2c1CCN(C(=O)NCc1cccc(F)c1)CC2` | - | -5.029 | 7.169 | -1.481 | -10.98 |
| 52 | `CSCC(C)(O)CNC(=O)Nc1ccc(C)cc1Br` (stereo not shown) | -4.495 | -32.82 | 8.926 | 4.703 | 18.14 |
| 53 | `CN(C)C[C@H]1C[C@@H](CO)CN(C(=O)c2cc(=O)[nH]c3cc(F)ccc23)C1` | -0.5961 | 14.89 | -8.079 | -1.711 | -19.99 |
| 54 | `C[C@@H](CO)Nc1nccc(-c2cnc3sc(Cl)cn3c2=O)n1` | - | -1.814 | -6.489 | 1.325 | 16.3 |
| 55 | `Cc1cc(C)c2[nH]c(=O)c(CN3CCCC(O)(CO)C3)cc2c1` (stereo not shown) | 3.997 | -11.08 | -9.913 | -0.2481 | 5.498 |
| 56 | `CC1CCCN(Cc2ccc(CNC(=O)NCc3ccon3)cc2)C1` (stereo not shown) | -1.145 | 2.512 | -2.391 | 0.1218 | -18.69 |
| 57 | `O=C(O)C(F)(F)F.O=C(O)C(F)(F)F.[H][C@@]12OCCN(Cc3ccc(OC)cc3)[C@@]1([H])CC[C@H]2OCc1ccncc1` | - | -41.11 | - | - | - |
| 58 | `Cc1ccc(S(=O)(=O)N2CCOCC2C(N)=O)c(F)c1` (stereo not shown) | 3.23 | 1.705 | -5.032 | -5.202 | -2.628 |

The last 7 entries again:

{"smiles": "CSCC(C)(O)CNC(=O)Nc1ccc(C)cc1Br", "stereo": "stereo not shown", "MtTrpRS": -4.495, "Toxoplasma": -32.82, "ClpP1P2": 8.926, "CoaBC": 4.703, "Pks13 thioesterase": 18.14}
{"smiles": "CN(C)C[C@H]1C[C@@H](CO)CN(C(=O)c2cc(=O)[nH]c3cc(F)ccc23)C1", "MtTrpRS": -0.5961, "Toxoplasma": 14.89, "ClpP1P2": -8.079, "CoaBC": -1.711, "Pks13 thioesterase": -19.99}
{"smiles": "C[C@@H](CO)Nc1nccc(-c2cnc3sc(Cl)cn3c2=O)n1", "Toxoplasma": -1.814, "ClpP1P2": -6.489, "CoaBC": 1.325, "Pks13 thioesterase": 16.3}
{"smiles": "Cc1cc(C)c2[nH]c(=O)c(CN3CCCC(O)(CO)C3)cc2c1", "stereo": "stereo not shown", "MtTrpRS": 3.997, "Toxoplasma": -11.08, "ClpP1P2": -9.913, "CoaBC": -0.2481, "Pks13 thioesterase": 5.498}
{"smiles": "CC1CCCN(Cc2ccc(CNC(=O)NCc3ccon3)cc2)C1", "stereo": "stereo not shown", "MtTrpRS": -1.145, "Toxoplasma": 2.512, "ClpP1P2": -2.391, "CoaBC": 0.1218, "Pks13 thioesterase": -18.69}
{"smiles": "O=C(O)C(F)(F)F.O=C(O)C(F)(F)F.[H][C@@]12OCCN(Cc3ccc(OC)cc3)[C@@]1([H])CC[C@H]2OCc1ccncc1", "Toxoplasma": -41.11}
{"smiles": "Cc1ccc(S(=O)(=O)N2CCOCC2C(N)=O)c(F)c1", "stereo": "stereo not shown", "MtTrpRS": 3.23, "Toxoplasma": 1.705, "ClpP1P2": -5.032, "CoaBC": -5.202, "Pks13 thioesterase": -2.628}